PubChem BioAssay AID1259254, NCATS, 2017

Purpose: 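Finding genes that stop cells copying their DNA twice in one cycle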 (primary screen)
Cell system: human HCT116 colorectal cancer cells
Reagents: single siRNA against human genes
Duration: 3 days
Read-out: 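Nuclei stained with Hoechst and imaged; cell-cycle phase assigned by DNA content; G2 share scaled per plate, non-targeting siRNA 0%, GMNN siRNA 100%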
Direction: G2 robust z-score and G2 cells, % of GMNN control: higher = more G2 cells, more excess DNA replication; raw share of cells in G2: higher = larger share of cells with G2 DNA content
Call rule: 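Active siRNAs have a G2 robust z of 5 or more median absolute deviations over the median, which in these data means about 38% or higher of GMNN control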
This is a random part of about 59,000 deposited reagents. About 1,550 of them (2.6%) count as active. 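G2 share is only a proxy for re-replication; each gene was hit by three separate siRNAs, and active genes were retested.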 Raw values are not corrected between plates. Unmarked entries are inactive. Reagents against one gene are numbered here. Not stated in the record: the amount of reagent.

target gene	reagent	G2 robust z-score	G2 cells, % of GMNN control	raw share of cells in G2 (%)
SUCLG1	1	-0.27	1.07	5.02
SUCLG1	2	1.32	12.2	9.56
SUCLG1	3	5.27 (active)	40.1	19.1
TMEM234	1	-1.13	-5.01	1.44
TMEM234	2	0.303	5.1	6.36
TMEM234	3	1.64	14.5	11.4
LOC729995 (retired record)	1	-0.801	-2.67	3.04
LOC729995 (retired record)	2	-0.481	-0.418	3.08
LOC729995 (retired record)	3	-0.345	0.542	3.37
DEFB110	1	0.584	7.08	6.14
DEFB110	2	0.123	3.84	4.44
DEFB110	3	-0.565	-1.01	2.87
DEFB110	4	-0.734	-2.2	2.78
DEFB110	5	-0.874	-3.18	2.04
DEFB110	6	-0.899	-3.36	2.12
PRKRA	1	5.05 (active)	38.5	18.8
PRKRA	2	0.64	7.47	7.93
PRKRA	3	1.98	16.9	10.8

Continued, starting with the last 6 of the part before.
target gene	reagent	G2 robust z-score	G2 cells, % of GMNN control	raw share of cells in G2 (%)
DEFB110	4	-0.734	-2.2	2.78
DEFB110	5	-0.874	-3.18	2.04
DEFB110	6	-0.899	-3.36	2.12
PRKRA	1	5.05 (active)	38.5	18.8
PRKRA	2	0.64	7.47	7.93
PRKRA	3	1.98	16.9	10.8
CLEC3A	1	0.913	9.39	9.57
CLEC3A	2	-0.361	0.426	4.12
CLEC3A	3	1.84	15.9	9.21
DELEC1	1	-1.02	-4.21	2.25
DELEC1	2	0.718	8.02	7.58
DELEC1	3	4.31	33.3	13.7
DNAJC27-AS1	1	1.44	13.1	9.24
DNAJC27-AS1	2	-0.655	-1.64	2.66
DNAJC27-AS1	3	-0.0228	2.81	4.2
ARHGAP6	1	-0.515	-0.653	5
ARHGAP6	2	0.906	9.34	7.51
ARHGAP6	3	-0.395	0.189	3.6
TENM4	1	-1.1	-4.77	2.62
TENM4	2	-0.173	1.75	4.7
TENM4	3	-0.884	-3.25	2.16
HPD	1	-0.375	0.328	5.81
HPD	2	0.714	7.99	7.13
HPD	3	-0.124	2.1	5.81
MRPL23	1	1.11	10.7	9.54
MRPL23	2	-0.616	-1.37	3.68
MRPL23	3	-0.434	-0.0896	3.32
PITHD1	1	-0.379	0.303	4.47
PITHD1	2	0.104	3.7	6.23
PITHD1	3	0.0151	3.07	4
TBC1D3G	1	0.0718	3.47	3.81
TBC1D3G	2	0.396	5.75	5.83
TBC1D3G	3	-1.12	-4.91	1.36
INHBB	1	1.25	11.7	9.31
INHBB	2	0.576	7.02	8.35
INHBB	3	2.16	18.1	10.9
